{
  "sequences": {"note": "Chains of the proteins cited; added tags and fusions are not shown. Lines headed by an entry give the natural chain unless they say otherwise; changes in a name come on top.", "UniProt P81172": "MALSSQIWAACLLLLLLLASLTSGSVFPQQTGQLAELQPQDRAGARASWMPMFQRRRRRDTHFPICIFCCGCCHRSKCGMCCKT", "UniProt Q9EQ21": "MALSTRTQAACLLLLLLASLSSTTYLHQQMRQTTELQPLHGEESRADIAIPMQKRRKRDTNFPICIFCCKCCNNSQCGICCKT", "UniProt Q99MH3": "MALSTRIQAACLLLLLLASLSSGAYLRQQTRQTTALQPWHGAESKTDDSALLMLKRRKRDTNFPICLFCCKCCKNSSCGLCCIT"},
  "source": "patent US20140057970",
  "key": {"[1]": {"biological_target": "human hepcidin-22 (Homo sapiens) (UniProt P81172)", "test": "competition with a labelled probe", "details": "L-RNA, similar to human hepcidin-25, synthetic protein, protein details: synthetic peptide, non-biotinylated, mirror-image nucleic acid"}, "[2]": {"biological_target": "T1, mouse hepcidin-25 (Mus musculus) (UniProt Q9EQ21)", "T1 sequence": "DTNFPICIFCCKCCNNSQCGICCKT", "test": "SPR", "details": "L-RNA, synthetic protein, protein details: synthetic peptide (Bachem), biotinylated, mirror-image nucleic acid"}, "[3]": {"biological_target": "T2, rat hepcidin-25 (Rattus norvegicus) (UniProt Q99MH3)", "T2 sequence": "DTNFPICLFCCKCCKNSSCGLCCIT", "test": "SPR", "details": "L-RNA, synthetic protein, protein details: synthetic peptide (Bachem), biotinylated, mirror-image nucleic acid"}, "[4]": {"biological_target": "human hepcidin-20 (Homo sapiens) (UniProt P81172)", "test": "SPR", "details": "L-RNA, similar to human hepcidin-25, synthetic protein, protein details: synthetic peptide (Bachem), mirror-image nucleic acid"}, "[5]": {"biological_target": "T3, human hepcidin-25 (L-peptide) (Homo sapiens) (UniProt P81172)", "T3 sequence": "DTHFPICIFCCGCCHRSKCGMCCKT", "test": "pull-down", "details": "L-RNA, 5'-NH2-HEG-HEG-HEG, coupled to NHS-Sepharose; immobilised spiegelmer almost completely depletes hepcidin spiked in human plasma, 25 C; blocked Sepharose control low binding; synthetic protein; protein details: synthetic peptide (Bachem), biotinylated for SPR; mirror-image nucleic acid; variant of 238-D4-008 spiegelmer"}, "marmoset hepcidin-25": {"biological_target": "T4, marmoset hepcidin-25 (UniProt A7XEI5)", "T4 sequence (looked up)": "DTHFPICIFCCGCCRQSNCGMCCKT", "test": "competition with a labelled probe", "details": "L-RNA, synthetic protein, protein details: synthetic L-peptide, non-biotinylated, mirror-image nucleic acid"}, "[6]": {"tested_on": "T5, cynomolgus hepcidin-25 (Macaca fascicularis)", "T5 sequence": "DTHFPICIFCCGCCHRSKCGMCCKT", "test": "inhibition of the protein", "details": "L-RNA, 5'-40 kDa PEG; in vivo cynomolgus, IL-6 induced endogenous hepcidin; serum iron decrease completely blocked; synthetic protein; protein details: synthetic peptide; mirror-image nucleic acid; variant of 238-D4-008 spiegelmer; dose not given here"}, "[7]": {"biological_target": "T3, human hepcidin-25 (L-peptide) (Homo sapiens)", "test": "inhibition of the protein", "details": "L-RNA, 5'-40 kDa PEG; in vivo mouse; blocks serum iron decrease by human hepcidin-25 (56% without spiegelmer); synthetic protein; protein details: synthetic peptide (Bachem), biotinylated for SPR; mirror-image nucleic acid; variant of 238-D4-008 spiegelmer; dose not given here"}, "[8]": {"details": "variant of 229-B1-001 spiegelmer"}, "[9]": {"details": "variant of 238-C4-001 spiegelmer"}, "[10]": {"details": "variant of 238-D4-001 spiegelmer"}},
  "note": "The exact form of at least one protein or probe is not confirmed. For some assays here: Negatives hold for the conditions tested. For some assays here: Tags and fusion partners may be left off the protein sequences shown. For some assays here: A weaker result is weaker than the reference pair of the same experiment.",
  "data": [
    {"sequence": "AGCGUGUCGUAUGGGAUUAAGUAAAUGAGGAGUUGGAGGAAGGGCAUGCU [238-D4-001 spiegelmer]", "values": [
      {"measurement": "binding result", "setting": "[1]", "value": "binds"},
      {"measurement": "binding result", "setting": "[2]", "value": "no binding"},
      {"measurement": "binding result", "setting": "[3]", "value": "no binding"},
      {"measurement": "binding result", "setting": "[4]", "value": "binds"}
    ]},
    {"sequence": "GCGCCGUAUGGGAUUAAGUAAAUGAGGAGUUGGAGGAAGGGCGC [NOX-H94-3xHEG-amino]", "values": [
      {"measurement": "binding result", "setting": "[5]", "value": "binds"}
    ]},
    {"sequence": "GCUGUGUAAAGUAGAGGACAAUUGUCGGCGUGAUAGUGCCACAGC [229-B1-002 spiegelmer]", "values": [
      {"measurement": "binding result", "setting": "[1]; [8]", "value": "binds"},
      {"measurement": "binding result", "setting": "[2]; [8]", "value": "no binding"},
      {"measurement": "binding result", "setting": "[3]; [8]", "value": "no binding"},
      {"measurement": "binding result", "setting": "[4]; variant of 229-B1-001 …", "value": "binds"}
    ]},
    {"sequence": "GGCCGGACAGCCGGGGGACACCAUAUACAGACUACGAUACGGCC [238-C4-006 spiegelmer]", "values": [
      {"measurement": "binding result", "setting": "[1]; [9]", "value": "binds"},
      {"measurement": "binding result", "setting": "marmoset hepcidin-25; [9]", "value": "no binding"},
      {"measurement": "binding result", "setting": "[2]; [9]", "value": "no binding"},
      {"measurement": "binding result", "setting": "[3]; [9]", "value": "no binding"},
      {"measurement": "binding result", "setting": "[4]; variant of 238-C4-001 …", "value": "binds"}
    ]},
    {"sequence": "GCGCCGUAUGGGAUUAAGUAAAUGAGGAGUUGGAGGAAGGGCGC [238-D4-008-5'-PEG (NOX-H94)]", "values": [
      {"measurement": "functional effect of the aptamer", "setting": "[6]", "value": "active"},
      {"measurement": "functional effect of the aptamer (% of control serum iron)", "setting": "[7]", "value": 98}
    ]},
    {"sequence": "GCGCCGUAUGGGAUUAAGUAAAUGAGGAGUUGGAGGAAGGGCGC [238-D4-008 spiegelmer]", "values": [
      {"measurement": "binding result", "setting": "marmoset hepcidin-25; [10]", "value": "binds more weakly"},
      {"measurement": "binding result", "setting": "[2]; [10]", "value": "no binding"},
      {"measurement": "binding result", "setting": "[3]; [10]", "value": "no binding"},
      {"measurement": "binding result", "setting": "[4]; variant of 238-D4-001 …", "value": "binds"}
    ]}
  ]
}
